Results reported in patent US8299022B2 (IPSEN Pharma S.A.S., priority 2006, dated 2012).
Strings that start with PEPTIDE1 are HELM notation: dots part the residues, brackets hold end groups and non-standard residues. Square brackets hold non-standard residues; d marks the D form. * marks the point of attachment. Octanoyl = CCCCCCCC(=O)*; Aib = CC(C)(N)C(=O)O; Inp = O=C(O)C1CCNCC1

Assay: general procedure: Fmoc solid-phase peptide synthesis; Rink Amide-MBHA resin (Novabiochem), substitution 0.64 mmol/g; HBTU/HOBT, DIEA in NMP
Conditions: whole synthesis; for final HPLC purity: analytical HPLC, scale of the general procedure 0.1 mmol; for isolated mass / isolated yield: scale 0.1 mmol

Substance	final HPLC purity	isolated mass [mg]	isolated yield [%]
(Ac-Inp^1, Aib^2, 10, Glu(NH-hexyl)^3)hGhrelin(1-28)-NH2	97.0%	–	–
(Inp^1)hGhrelin(1-28)-NH2	96.2%	–	–
(Inp^1, Aib^2)hGhrelin(1-28)-NH2	99.0%	–	–
(Inp^1, Aib^2, 8)hGhrelin(1-28)-NH2	98.0%	–	–
(Inp^1, Aib^2, 10)hGhrelin(1-28)-NH2	99.0%	–	–
(Inp^1, Aib^2, 10, Glu(NH-hexyl)^3)hGhrelin(1-28)-NH2	97.8%	–	–
(Inp^1, Aib^2, Glu(NH-hexyl)^3)hGhrelin(1-28)-NH2	99.0%	–	–
(Inp^1, Aib^2, Ser(n-octanoyl)^17)hGhrelin(1-28)-NH2	98.0%	–	–
(Inp^1, Ser(n-octanoyl)^17)hGhrelin(1-28)-NH2	approximately 96.6%	–	–
H-[Inp][Aib]S(Octanoyl)FLSP[Aib]HQRVQQRKS(Octanoyl)SKKPPAKLQPR-NH2 (N-terminus assumed; SMILES CCCCCCCC(=O)OC[C@H](NC(=O)[C@H](CCCCN)NC(=O)[C@H](CCCNC(=N)N)NC(=O)[C@H](CCC(N)=O)NC(=O)[C@H](CCC(N)=O)NC(=O)[C@@H](NC(=O)[C@H](CCCNC(=N)N)NC(=O)[C@H](CCC(N)=O)NC(=O)[C@H](Cc1c[nH]cn1)NC(=O)C(C)(C)NC(=O)[C@@H]1CCCN1C(=O)[C@H](CO)NC(=O)[C@H](CC(C)C)NC(=O)[C@H](Cc1ccccc1)NC(=O)[C@H](COC(=O)CCCCCCC)NC(=O)C(C)(C)NC(=O)C1CCNCC1)C(C)C)C(=O)N[C@@H](CO)C(=O)N[C@@H](CCCCN)C(=O)N[C@@H](CCCCN)C(=O)N1CCC[C@H]1C(=O)N1CCC[C@H]1C(=O)N[C@@H](C)C(=O)N[C@@H](CCCCN)C(=O)N[C@@H](CC(C)C)C(=O)N[C@@H](CCC(N)=O)C(=O)N1CCC[C@H]1C(=O)N[C@@H](CCCNC(=N)N)C(N)=O)	99.0%	–	–
PEPTIDE1{[1-Apc].[Aib].[Glu(NH-hexyl)].F.L.S.P.E.H.[Aib].R.V.Q.Q.R.K.E.S.K.K.P.P.A.K.L.Q.P.R.[am]}$$$$V2.0	approximately 99.8%	4.6	1.4
PEPTIDE1{[ac].[1-Apc].[Aib].[Glu(NH-hexyl)].F.L.S.P.E.H.[Aib].R.V.Q.Q.R.K.E.S.K.K.P.P.A.K.L.Q.P.R.[am]}$$$$V2.0	approximately 97.5%	1.5	0.5
[Inp^1, Aib^2, 10, Ser^3]hGhrelin(1-28)-NH2	99.9%	–	–
[Inp^1, Aib^2, Ser^3, Ser(n-octanoyl)^17]hGhrelin(1-28)-NH2	99.0%	–	–
[Inp^1, Aib^2, Ser^3]hGhrelin(1-28)-NH2	99.9%	–	–
[Inp^1, Ser^3]hGhrelin(1-28)-NH2	99.5%	–	–
